This is one part of the list.
Tests used:
Assay in all cases: log2 fold change, soluble protein after heating vs DMSO (PISA); higher = thermal stabilisation; K562 cells, 10 uM, 30 min; active = over 0.2 and 3.5 SD of the protein, either way, in both replicates (recomputed)
[1] = compound: NC(=O)Nc1cc(-c2cccc(F)c2)sc1C(=O)N[C@H]1CCCNC1
Method in brief: (§1)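 K562 cells at 2×10^6 cells/mL were treated for 30 min with 10 μM compound, and aliquots were heated for 3 min over 48°C-58°C before pooling. Extraction used PBS with 0.5% NP-40 at 4°C, and soluble protein was the supernatant after 21,000xg for 90 min, measured by TMTpro 16plex LC-MS/MS with channel sums equalised. Thermal stability values, relative to control samples and from duplicates, are log2 fold changes.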

Protein sequences, listed by entry. Tags and fused reporters are not part of them. Lines headed by an entry give the natural chain unless they say otherwise; changes in a name come on top.
UniProt O75363: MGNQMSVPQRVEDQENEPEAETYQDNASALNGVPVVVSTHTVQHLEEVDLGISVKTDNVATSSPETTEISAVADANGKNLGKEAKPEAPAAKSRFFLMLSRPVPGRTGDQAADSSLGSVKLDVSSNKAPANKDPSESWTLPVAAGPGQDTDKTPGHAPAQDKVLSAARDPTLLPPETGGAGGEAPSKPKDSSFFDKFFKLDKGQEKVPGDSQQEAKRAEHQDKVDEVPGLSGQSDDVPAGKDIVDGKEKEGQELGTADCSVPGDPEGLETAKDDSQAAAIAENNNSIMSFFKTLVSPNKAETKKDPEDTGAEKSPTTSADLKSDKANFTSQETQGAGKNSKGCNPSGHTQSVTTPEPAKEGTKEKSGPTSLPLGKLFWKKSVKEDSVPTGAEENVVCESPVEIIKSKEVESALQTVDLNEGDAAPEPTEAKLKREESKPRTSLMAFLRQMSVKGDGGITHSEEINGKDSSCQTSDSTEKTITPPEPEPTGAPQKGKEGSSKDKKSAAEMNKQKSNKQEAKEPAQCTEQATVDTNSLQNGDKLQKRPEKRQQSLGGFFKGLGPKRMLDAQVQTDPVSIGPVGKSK
UniProt Q6Y288: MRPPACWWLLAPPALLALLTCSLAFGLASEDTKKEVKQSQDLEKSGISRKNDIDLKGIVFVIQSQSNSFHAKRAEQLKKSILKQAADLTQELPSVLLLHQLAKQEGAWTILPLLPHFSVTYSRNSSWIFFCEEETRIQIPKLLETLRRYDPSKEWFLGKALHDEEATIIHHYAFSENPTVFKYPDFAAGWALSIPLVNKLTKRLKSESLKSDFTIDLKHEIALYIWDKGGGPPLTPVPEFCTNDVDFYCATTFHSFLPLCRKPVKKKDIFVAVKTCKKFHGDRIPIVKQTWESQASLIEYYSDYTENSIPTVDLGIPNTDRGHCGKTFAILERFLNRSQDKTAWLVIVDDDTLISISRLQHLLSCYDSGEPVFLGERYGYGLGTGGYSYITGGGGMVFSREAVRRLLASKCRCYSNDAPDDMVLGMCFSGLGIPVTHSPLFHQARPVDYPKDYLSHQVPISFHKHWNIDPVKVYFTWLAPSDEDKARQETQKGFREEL
UniProt O43521, whole entry, looked up: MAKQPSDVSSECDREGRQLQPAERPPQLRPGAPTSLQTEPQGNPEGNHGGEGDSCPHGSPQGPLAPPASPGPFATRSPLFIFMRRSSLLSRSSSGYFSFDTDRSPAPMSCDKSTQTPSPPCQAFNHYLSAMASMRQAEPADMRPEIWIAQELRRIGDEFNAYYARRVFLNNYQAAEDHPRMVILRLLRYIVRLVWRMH
UniProt P21953: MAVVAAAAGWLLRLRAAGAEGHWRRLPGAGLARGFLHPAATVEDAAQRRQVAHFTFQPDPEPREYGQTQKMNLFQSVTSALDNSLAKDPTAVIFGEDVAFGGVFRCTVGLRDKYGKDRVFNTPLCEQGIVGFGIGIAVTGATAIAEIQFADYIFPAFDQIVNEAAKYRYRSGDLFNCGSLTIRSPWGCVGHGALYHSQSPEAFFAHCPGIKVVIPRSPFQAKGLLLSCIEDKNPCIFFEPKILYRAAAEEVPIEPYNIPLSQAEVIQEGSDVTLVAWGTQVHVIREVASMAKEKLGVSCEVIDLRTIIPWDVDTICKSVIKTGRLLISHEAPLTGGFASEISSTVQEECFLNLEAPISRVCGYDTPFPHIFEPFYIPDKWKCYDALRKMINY
UniProt Q07817, whole entry, looked up: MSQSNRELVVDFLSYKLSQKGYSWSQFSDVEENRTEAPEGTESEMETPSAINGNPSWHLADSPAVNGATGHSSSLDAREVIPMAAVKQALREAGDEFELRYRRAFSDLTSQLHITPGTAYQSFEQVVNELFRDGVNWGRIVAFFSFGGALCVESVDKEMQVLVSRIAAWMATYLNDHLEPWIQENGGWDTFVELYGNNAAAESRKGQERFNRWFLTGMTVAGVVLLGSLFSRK
UniProt P54687: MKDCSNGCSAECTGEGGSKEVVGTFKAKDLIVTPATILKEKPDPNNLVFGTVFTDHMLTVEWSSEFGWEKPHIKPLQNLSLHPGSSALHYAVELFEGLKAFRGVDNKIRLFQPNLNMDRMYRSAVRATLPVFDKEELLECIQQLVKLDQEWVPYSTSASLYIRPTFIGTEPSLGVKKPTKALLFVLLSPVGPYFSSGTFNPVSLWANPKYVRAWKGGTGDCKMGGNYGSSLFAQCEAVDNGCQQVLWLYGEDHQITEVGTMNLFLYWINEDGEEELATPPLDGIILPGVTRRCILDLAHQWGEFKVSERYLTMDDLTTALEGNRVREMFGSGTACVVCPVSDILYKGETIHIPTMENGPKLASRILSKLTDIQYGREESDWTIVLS
UniProt Q9BUT1: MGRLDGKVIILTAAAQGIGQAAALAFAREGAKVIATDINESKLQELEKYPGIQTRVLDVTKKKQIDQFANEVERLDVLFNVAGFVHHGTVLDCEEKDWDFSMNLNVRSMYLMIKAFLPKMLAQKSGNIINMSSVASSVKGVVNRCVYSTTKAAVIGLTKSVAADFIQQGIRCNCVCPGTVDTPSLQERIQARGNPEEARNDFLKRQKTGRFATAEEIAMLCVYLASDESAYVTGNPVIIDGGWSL
UniProt Q6UW56: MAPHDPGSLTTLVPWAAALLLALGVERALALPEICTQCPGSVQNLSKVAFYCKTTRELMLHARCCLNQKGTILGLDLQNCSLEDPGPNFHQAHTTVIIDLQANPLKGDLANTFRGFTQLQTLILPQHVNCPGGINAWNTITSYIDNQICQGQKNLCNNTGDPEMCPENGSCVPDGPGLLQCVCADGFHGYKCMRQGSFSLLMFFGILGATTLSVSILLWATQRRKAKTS
UniProt Q9NY97: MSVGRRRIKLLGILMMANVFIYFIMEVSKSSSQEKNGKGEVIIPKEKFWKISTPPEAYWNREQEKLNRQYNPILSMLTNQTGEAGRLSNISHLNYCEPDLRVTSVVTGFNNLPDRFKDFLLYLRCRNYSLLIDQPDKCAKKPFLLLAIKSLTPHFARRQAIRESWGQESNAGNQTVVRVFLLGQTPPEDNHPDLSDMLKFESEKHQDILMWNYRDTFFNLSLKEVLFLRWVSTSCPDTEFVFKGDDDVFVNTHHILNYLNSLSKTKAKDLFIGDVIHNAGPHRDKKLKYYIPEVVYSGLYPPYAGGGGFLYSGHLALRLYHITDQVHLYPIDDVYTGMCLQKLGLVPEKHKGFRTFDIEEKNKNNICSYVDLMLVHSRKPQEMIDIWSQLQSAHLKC
UniProt P12694: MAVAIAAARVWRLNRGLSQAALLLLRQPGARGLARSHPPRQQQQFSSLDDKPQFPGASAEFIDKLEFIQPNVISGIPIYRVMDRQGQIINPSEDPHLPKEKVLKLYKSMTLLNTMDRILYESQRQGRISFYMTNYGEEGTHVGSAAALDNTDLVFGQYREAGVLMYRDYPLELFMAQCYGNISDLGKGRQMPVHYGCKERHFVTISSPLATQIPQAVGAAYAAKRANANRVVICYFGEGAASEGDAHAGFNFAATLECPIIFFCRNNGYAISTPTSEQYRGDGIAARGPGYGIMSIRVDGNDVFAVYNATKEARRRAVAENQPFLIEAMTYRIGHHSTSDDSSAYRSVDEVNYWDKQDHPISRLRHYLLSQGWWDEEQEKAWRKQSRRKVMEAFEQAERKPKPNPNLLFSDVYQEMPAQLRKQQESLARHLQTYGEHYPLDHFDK
UniProt Q96GS4: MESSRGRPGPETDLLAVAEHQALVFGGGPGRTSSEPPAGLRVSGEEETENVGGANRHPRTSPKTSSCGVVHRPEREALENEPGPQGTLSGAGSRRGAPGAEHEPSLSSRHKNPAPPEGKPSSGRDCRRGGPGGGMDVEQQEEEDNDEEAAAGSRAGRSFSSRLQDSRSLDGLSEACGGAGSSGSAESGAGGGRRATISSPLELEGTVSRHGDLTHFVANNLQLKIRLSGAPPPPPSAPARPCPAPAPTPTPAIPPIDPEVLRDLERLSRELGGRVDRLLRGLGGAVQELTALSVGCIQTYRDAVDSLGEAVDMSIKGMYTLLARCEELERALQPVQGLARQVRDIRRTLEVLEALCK
UniProt Q8TD16, whole entry, looked up: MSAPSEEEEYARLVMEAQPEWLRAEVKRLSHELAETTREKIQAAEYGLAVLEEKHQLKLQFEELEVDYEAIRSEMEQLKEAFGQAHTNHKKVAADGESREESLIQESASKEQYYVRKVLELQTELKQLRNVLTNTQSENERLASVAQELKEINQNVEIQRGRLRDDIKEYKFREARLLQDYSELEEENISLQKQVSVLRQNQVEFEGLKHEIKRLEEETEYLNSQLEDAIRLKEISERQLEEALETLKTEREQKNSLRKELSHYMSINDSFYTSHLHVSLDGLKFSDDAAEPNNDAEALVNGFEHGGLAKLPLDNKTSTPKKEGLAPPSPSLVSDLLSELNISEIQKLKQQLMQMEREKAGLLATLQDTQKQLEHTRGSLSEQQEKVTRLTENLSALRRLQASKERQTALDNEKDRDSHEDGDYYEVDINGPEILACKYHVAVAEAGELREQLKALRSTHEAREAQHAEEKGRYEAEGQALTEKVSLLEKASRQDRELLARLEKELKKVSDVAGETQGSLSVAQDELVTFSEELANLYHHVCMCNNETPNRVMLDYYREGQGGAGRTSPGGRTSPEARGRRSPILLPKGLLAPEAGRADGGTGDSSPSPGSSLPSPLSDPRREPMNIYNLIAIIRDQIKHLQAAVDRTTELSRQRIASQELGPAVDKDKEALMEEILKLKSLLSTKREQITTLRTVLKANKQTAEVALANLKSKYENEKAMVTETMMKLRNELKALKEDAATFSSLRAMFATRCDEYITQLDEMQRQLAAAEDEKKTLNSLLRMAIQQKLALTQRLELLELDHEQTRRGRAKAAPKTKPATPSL
UniProt Q14692: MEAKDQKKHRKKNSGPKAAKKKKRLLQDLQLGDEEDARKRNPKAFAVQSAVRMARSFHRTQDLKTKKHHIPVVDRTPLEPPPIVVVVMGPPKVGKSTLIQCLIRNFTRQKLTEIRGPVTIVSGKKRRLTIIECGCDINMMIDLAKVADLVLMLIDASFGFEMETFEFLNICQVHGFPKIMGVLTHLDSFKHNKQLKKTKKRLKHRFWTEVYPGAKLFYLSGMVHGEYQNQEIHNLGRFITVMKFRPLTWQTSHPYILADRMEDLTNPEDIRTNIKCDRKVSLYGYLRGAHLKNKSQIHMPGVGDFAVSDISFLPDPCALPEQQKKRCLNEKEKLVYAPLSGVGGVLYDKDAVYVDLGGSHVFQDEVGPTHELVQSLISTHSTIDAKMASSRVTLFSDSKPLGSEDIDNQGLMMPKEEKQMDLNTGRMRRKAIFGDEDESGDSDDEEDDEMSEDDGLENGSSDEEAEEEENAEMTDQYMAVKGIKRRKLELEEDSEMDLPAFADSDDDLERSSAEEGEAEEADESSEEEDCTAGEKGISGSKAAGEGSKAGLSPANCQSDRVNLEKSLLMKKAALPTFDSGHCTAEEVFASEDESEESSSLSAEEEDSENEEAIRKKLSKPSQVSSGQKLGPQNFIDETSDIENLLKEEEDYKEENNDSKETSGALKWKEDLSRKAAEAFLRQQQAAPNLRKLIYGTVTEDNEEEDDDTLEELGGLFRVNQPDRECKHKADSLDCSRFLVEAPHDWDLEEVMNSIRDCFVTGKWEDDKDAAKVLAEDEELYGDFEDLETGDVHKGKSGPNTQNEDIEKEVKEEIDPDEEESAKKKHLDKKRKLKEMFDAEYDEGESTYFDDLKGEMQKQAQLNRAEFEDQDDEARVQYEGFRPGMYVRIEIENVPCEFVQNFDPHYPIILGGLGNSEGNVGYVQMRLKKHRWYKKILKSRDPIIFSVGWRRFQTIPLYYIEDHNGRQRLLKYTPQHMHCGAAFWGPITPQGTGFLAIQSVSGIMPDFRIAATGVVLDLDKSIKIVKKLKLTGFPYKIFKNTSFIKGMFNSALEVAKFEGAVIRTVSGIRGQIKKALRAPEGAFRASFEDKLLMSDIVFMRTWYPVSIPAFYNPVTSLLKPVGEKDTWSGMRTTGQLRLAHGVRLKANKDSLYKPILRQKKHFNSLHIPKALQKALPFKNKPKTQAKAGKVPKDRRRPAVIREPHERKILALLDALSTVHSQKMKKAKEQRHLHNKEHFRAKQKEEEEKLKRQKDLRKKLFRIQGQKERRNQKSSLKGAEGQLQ

[2] = compound: NC(=O)c1cnc(N[C@@H]2CCCC[C@@H]2N)nc1Nc1cccc(-n2nccn2)c1
Method in brief: as §1

[3] = compound: NC1(c2ccc(-c3nc4ccn5c(=O)[nH]nc5c4cc3-c3ccccc3)cc2)CCC1
Method in brief: as §1

[4] = compound: NCC(=O)Nc1ccc(-n2nc(C(F)(F)F)cc2-c2ccc3c(ccc4ccccc43)c2)cc1
Method in brief: as §1

entinostat = compound: Nc1ccccc1NC(=O)c1ccc(CNC(=O)OCc2cccnc2)cc1 [entinostat]
Method in brief: as §1

vorinostat = compound: O=C(CCCCCCC(=O)Nc1ccccc1)NO [vorinostat]
Method in brief: as §1

citarinostat = compound: O=C(CCCCCCNC(=O)c1cnc(N(c2ccccc2)c2ccccc2Cl)nc1)NO [citarinostat]
Method in brief: as §1

silmitasertib = compound: O=C(O)c1ccc2c(c1)nc(Nc1cccc(Cl)c1)c1ccncc12 [silmitasertib]
Method in brief: as §1

[5] = compound: O=C1NC(=O)C(c2cnc3ccccn23)=C1c1cn2c3c(cc(F)cc13)CN(C(=O)N1CCCCC1)CC2
Method in brief: as §1

[6] = compound: c1cc(OCCN2CCCCC2)cc(-c2n[nH]c3ccc(-c4nnc[nH]4)cc23)c1
Method in brief: as §1

entospletinib = compound: c1cn2cc(-c3ccc4cn[nH]c4c3)nc(Nc3ccc(N4CCOCC4)cc3)c2n1 [entospletinib]
Method in brief: as §1

Measured: log2 fold change

BCAS1 (UniProt O75363)
inactive: [1] -0.014 | [2] 0.049 | [3] 0.015 | [4] 0.037 | entinostat 0.015 | vorinostat -0.001 | citarinostat 0.014 | silmitasertib 0.056 | [5] 0 | [6] -0.022 | entospletinib 0.059

B3GLCT (UniProt Q6Y288)
inactive: [1] 0.001 | [2] 0.005 | [3] -0.036 | [4] -0.038 | entinostat -0.032 | vorinostat -0.14 | citarinostat -0.04 | silmitasertib -0.025 | [5] 0.054 | [6] 0.028 | entospletinib 0.026

BCL2L11 (UniProt O43521)
inactive: [1] -0.054 | [2] 0.009 | [3] 0.019 | [4] 0.147 | entinostat 0.025 | vorinostat -0.089 | citarinostat 0.017 | silmitasertib -0.008 | [5] -0.016 | [6] 0.141 | entospletinib 0.142

BCKDHB (UniProt P21953)
inactive: [1] 0.108 | [2] 0.053 | [3] -0.089 | [4] 0.087 | entinostat -0.2 | vorinostat -0.126 | citarinostat 0.06 | silmitasertib -0.011 | [5] -0.024 | [6] -0.001 | entospletinib -0.017

BCL2L1 (UniProt Q07817)
inactive: [1] 0.05 | [2] -0.03 | [3] 0.021 | [4] -0.001 | entinostat 0.099 | vorinostat 0.127 | citarinostat 0.084 | silmitasertib 0.012 | [5] -0.011 | [6] -0.043 | entospletinib -0.078

BCAT1 (UniProt P54687)
inactive: [1] 0.012 | [2] 0.006 | [3] 0.003 | [4] -0.004 | entinostat -0.021 | vorinostat 0.009 | citarinostat 0.018 | silmitasertib -0.004 | [5] 0.005 | [6] 0.012 | entospletinib -0.012

BDH2 (UniProt Q9BUT1)
inactive: [1] -0.091 | [2] -0.086 | [3] -0.042 | [4] 0.009 | entinostat 0.025 | vorinostat -0.03 | silmitasertib 0.076

ATRAID isoform 3 (UniProt Q6UW56)
inactive: [1] 0.009 | [2] 0.01 | [3] -0.015 | [4] -0.06 | entinostat -0.022 | vorinostat 0.063 | citarinostat 0.036 | silmitasertib 0.022 | [6] 0.003 | entospletinib 0.016

B3GNT2 (UniProt Q9NY97)
inactive: [1] -0.117 | [2] 0 | [3] -0.041 | [4] 0.05 | entinostat -0.023 | vorinostat -0.014 | citarinostat -0.008 | silmitasertib -0.017 | [5] -0.071 | [6] -0.023 | entospletinib -0.053

Two neighbouring records out of the list so far, for reference:
BCL2L1 (UniProt Q07817)
inactive: [1] 0.05 | [2] -0.03 | [3] 0.021 | [4] -0.001 | entinostat 0.099 | vorinostat 0.127 | citarinostat 0.084 | silmitasertib 0.012 | [5] -0.011 | [6] -0.043 | entospletinib -0.078

BCAT1 (UniProt P54687)
inactive: [1] 0.012 | [2] 0.006 | [3] 0.003 | [4] -0.004 | entinostat -0.021 | vorinostat 0.009 | citarinostat 0.018 | silmitasertib -0.004 | [5] 0.005 | [6] 0.012 | entospletinib -0.012

(continued)

BCKDK (UniProt O14874)
inactive: [1] -0.03 | [2] -0.02 | [3] 0.072 | [4] 0.046 | entinostat -0.031 | vorinostat 0.025 | citarinostat 0 | silmitasertib 0.018 | [5] -0.027 | [6] -0.096 | entospletinib 0

BCKDHA (UniProt P12694)
inactive: [1] 0.009 | [2] -0.035 | [3] -0.062 | [4] -0.042 | entinostat 0.003 | vorinostat -0.011 | citarinostat 0.017 | silmitasertib 0.066 | [5] 0.009 | [6] -0.066 | entospletinib 0.017

BORCS6 (UniProt Q96GS4)
inactive: [1] -0.036 | [2] -0.032 | [3] -0.115 | [4] 0.027 | entinostat 0.004 | vorinostat 0.065 | citarinostat 0.064 | silmitasertib -0.049 | [5] -0.105 | [6] -0.006 | entospletinib 0.047

BICD2 isoform 2 (UniProt Q8TD16)
inactive: [1] -0.078 | [2] -0.056 | [3] -0.121 | [4] -0.095 | entinostat 0.054 | vorinostat 0.043 | citarinostat 0.006 | silmitasertib 0.033 | [5] 0.012 | [6] -0.03 | entospletinib -0.022

BMS1 (UniProt Q14692)
inactive: [1] 0.029 | [2] 0.046 | [3] 0.159 | [4] 0.093 | entinostat -0.058 | vorinostat -0.021 | citarinostat -0.104 | silmitasertib 0.13 | [5] 0.191 | [6] -0.218 | entospletinib -0.046

Source: the supplement of paper PMC10849652
